This assay deals with T1, LGR5 (human) (UniProt O75473).
T1 sequence: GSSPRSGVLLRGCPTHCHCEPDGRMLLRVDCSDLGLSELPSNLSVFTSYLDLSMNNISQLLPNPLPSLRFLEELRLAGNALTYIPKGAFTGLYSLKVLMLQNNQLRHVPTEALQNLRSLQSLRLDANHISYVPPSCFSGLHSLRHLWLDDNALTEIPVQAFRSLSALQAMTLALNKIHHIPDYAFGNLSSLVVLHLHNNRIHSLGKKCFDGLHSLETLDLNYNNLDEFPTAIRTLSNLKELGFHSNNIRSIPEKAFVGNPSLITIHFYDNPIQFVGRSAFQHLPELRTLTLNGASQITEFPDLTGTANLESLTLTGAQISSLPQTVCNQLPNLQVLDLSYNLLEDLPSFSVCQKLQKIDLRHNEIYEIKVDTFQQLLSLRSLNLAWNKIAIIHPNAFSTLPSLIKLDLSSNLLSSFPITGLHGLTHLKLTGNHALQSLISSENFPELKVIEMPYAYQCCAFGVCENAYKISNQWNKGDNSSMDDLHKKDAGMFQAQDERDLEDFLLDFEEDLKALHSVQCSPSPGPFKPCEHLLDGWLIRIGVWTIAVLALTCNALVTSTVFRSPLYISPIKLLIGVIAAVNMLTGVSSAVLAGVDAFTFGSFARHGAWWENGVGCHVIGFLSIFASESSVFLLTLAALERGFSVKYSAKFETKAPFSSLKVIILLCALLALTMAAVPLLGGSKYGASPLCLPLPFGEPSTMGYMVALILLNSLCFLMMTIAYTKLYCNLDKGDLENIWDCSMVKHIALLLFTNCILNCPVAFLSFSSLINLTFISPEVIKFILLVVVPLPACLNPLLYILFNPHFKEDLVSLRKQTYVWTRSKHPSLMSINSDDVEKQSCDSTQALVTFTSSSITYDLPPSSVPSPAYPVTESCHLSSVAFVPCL
Kind of assay: co-IP; immunoprecipitation (IP) to confirm protein-protein interactions; no further details.

Results are given in words; binding and its absence hold for the method and conditions named. In cells and extracts the contact can be indirect. Binding can be weak; no strength is given.

For the substance “isoform of Urotensin II (iUTS2) (ligand)”, the binding entry is “binds”.

The values above are taken from PMC11807462.
